Measurements reported in PubChem BioAssay AID1159584 (Peter MacCallum Cancer Centre, 2016)

Screen: 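Genes that CDH1-null MCF10A cells selectively depend on to survive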 (primary screen)
System: human MCF10A breast epithelial cells, parental and CDH1-null
Knock-down reagent: siRNA against human genes
Read-out: 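Cell viability by CellTiter-Glo ATP luminescence, each line scaled to the mean of mock wells across plates, then CDH1-null over parental ratio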
Direction: CDH1-null / parental viability ratio: higher = CDH1-null cells survive relatively better than parental; CDH1-null viability vs mock: higher = more viable CDH1-null cells; parental viability vs mock: higher = more viable parental cells
Here is a random part of about 18,000 deposited reagents. Not stated in the record: the amount of reagent, the time to read-out.

The first 5 records, ahead of the listing:
| Gene | CDH1-null / parental viability ratio | CDH1-null viability vs mock (fraction of mock) | parental viability vs mock (fraction of mock) |
| --- | --- | --- | --- |
| JPH2 (junctophilin 2) | 0.78 | 0.5 | 0.64 |
| MYL2 (myosin light chain 2) | 1.29 | 0.99 | 0.77 |
| GLYAT (glycine-N-acyltransferase) | 0.97 | 1.02 | 1.05 |
| ANKRD6 (ankyrin repeat domain 6) | 0.8 | 0.78 | 0.98 |
| HEMK2 | 0.9 | 0.7 | 0.78 |

Results, from the start:
| Gene | CDH1-null / parental viability ratio | CDH1-null viability vs mock (fraction of mock) | parental viability vs mock (fraction of mock) |
| --- | --- | --- | --- |
| JPH2 (junctophilin 2) | 0.78 | 0.5 | 0.64 |
| MYL2 (myosin light chain 2) | 1.29 | 0.99 | 0.77 |
| GLYAT (glycine-N-acyltransferase) | 0.97 | 1.02 | 1.05 |
| ANKRD6 (ankyrin repeat domain 6) | 0.8 | 0.78 | 0.98 |
| HEMK2 | 0.9 | 0.7 | 0.78 |
| NNT (nicotinamide nucleotide transhydrogenase) | 0.86 | 0.64 | 0.74 |
| INTS8 (integrator complex subunit 8) | 1.1 | 0.76 | 0.69 |
| CX3CL1 (C-X3-C motif chemokine ligand 1) | 0.91 | 0.63 | 0.69 |
| ZDHHC3 (zDHHC palmitoyltransferase 3) | 1.2 | 0.98 | 0.82 |
| IQUB (IQ motif and ubiquitin domain containing) | 0.71 | 0.72 | 1.01 |
| RPA4 (replication protein A4) | 0.71 | 0.62 | 0.87 |
| RMP64 (ribonuclease MRP subunit p64) | 0.71 | 0.36 | 0.51 |
| ALPK2 (alpha kinase 2) | 0.84 | 0.94 | 1.12 |
| NCK2 (NCK adaptor protein 2) | 0.98 | 0.8 | 0.82 |
| MAP4K4 (mitogen-activated protein kinase kinase kinase kinase 4) | 1.14 | 1.06 | 0.93 |
| ABCC11 (ATP binding cassette subfamily C member 11) | 1.01 | 1.02 | 1.01 |
| GTF2A1 (general transcription factor IIA subunit 1) | 0.91 | 0.6 | 0.66 |
| CASP8 (caspase 8) | 1.08 | 0.94 | 0.87 |
| CFAP157 (cilia and flagella associated protein 157) | 1.25 | 0.75 | 0.6 |
| DNAH2 (dynein axonemal heavy chain 2) | 0.87 | 0.8 | 0.92 |
| TTC1 (tetratricopeptide repeat domain 1) | 1.29 | 0.8 | 0.62 |
| DPP9 (dipeptidyl peptidase 9) | 1.29 | 1.01 | 0.78 |
| SLC41A3 | 1.44 | 0.92 | 0.64 |
| PRORP (protein only RNase P catalytic subunit) | 0.78 | 0.61 | 0.78 |
| TTLL1 (TTL family tubulin polyglutamylase complex subunit L1) | 0.86 | 0.76 | 0.88 |
| MED8 (mediator complex subunit 8) | 0.67 | 0.44 | 0.66 |
| LINC00207 (long independently transcribed non-coding RNA 207) | 0.81 | 0.6 | 0.74 |
| TYSND1 (trypsin like peroxisomal matrix peptidase 1) | 1.12 | 0.93 | 0.83 |
| MZT2B (mitotic spindle organizing protein 2B) | 0.87 | 0.68 | 0.78 |
| SCARF2 (scavenger receptor class F member 2) | 0.94 | 0.94 | 1 |
| TMEM177 (transmembrane protein 177) | 0.54 | 0.58 | 1.08 |
| OPRD1 (opioid receptor delta 1) | 0.95 | 0.94 | 0.99 |
| TXNDC11 (thioredoxin domain containing 11) | 0.87 | 0.73 | 0.84 |
| IFITM1 (interferon induced transmembrane protein 1) | 1.19 | 0.86 | 0.72 |
| RPL35 (ribosomal protein L35) | 1.24 | 0.36 | 0.29 |
| NAV3 (neuron navigator 3) | 0.99 | 1.08 | 1.09 |
| SSR1 (signal sequence receptor subunit 1) | 1.18 | 0.8 | 0.68 |
| RECK (reversion inducing cysteine rich protein with kazal motifs) | 1.23 | 0.95 | 0.77 |
| IFT70B (intraflagellar transport 70B) | 1.16 | 0.94 | 0.81 |
| ATF2 (activating transcription factor 2) | 0.8 | 0.72 | 0.9 |
| MMP9 (matrix metallopeptidase 9) | 1.17 | 1.1 | 0.94 |
| WNT6 (Wnt family member 6) | 1.16 | 1.15 | 0.99 |
| TRPV4 | 0.93 | 0.5 | 0.54 |
| ARHGEF3 (Rho guanine nucleotide exchange factor 3) | 1.08 | 0.9 | 0.83 |
| PKD1 | 1.25 | 0.8 | 0.64 |
| SART1 | 1.4 | 0.21 | 0.15 |
| FAM177B (family with sequence similarity 177 member B) | 1.19 | 0.7 | 0.59 |
| ZNF418 (zinc finger protein 418) | 0.9 | 0.61 | 0.68 |
| ADGRE2 (adhesion G protein-coupled receptor E2) | 0.85 | 0.72 | 0.85 |
| TNMD (tenomodulin) | 1.07 | 0.8 | 0.75 |
| TLCD3B (TLC domain containing 3B) | 1.14 | 0.92 | 0.81 |
| OR2T3 (olfactory receptor family 2 subfamily T member 3) | 1.14 | 0.96 | 0.84 |
| PAPOLG (poly(A) polymerase gamma) | 0.94 | 0.89 | 0.95 |
| TAS2R50 (taste 2 receptor member 50) | 0.94 | 0.76 | 0.81 |
| USP5 (ubiquitin specific peptidase 5) | 1.17 | 0.84 | 0.72 |
| ADRA2A (adrenoceptor alpha 2A) | 1.38 | 1.1 | 0.8 |
| PGGHG (protein-glucosylgalactosylhydroxylysine glucosidase) | 0.81 | 0.5 | 0.62 |
| GIPC2 (GIPC PDZ domain containing family member 2) | 1.03 | 0.76 | 0.74 |
| PRSS16 (serine protease 16) | 1.14 | 1 | 0.88 |
| EFL1 (elongation factor like GTPase 1) | 1 | 0.78 | 0.78 |
| ACER2 (alkaline ceramidase 2) | 0.96 | 0.46 | 0.48 |
| COPS5 (COP9 signalosome subunit 5) | 0.68 | 0.5 | 0.73 |
| SLC23A3 | 0.86 | 0.72 | 0.84 |
| RNF151 (ring finger protein 151) | 0.83 | 0.78 | 0.94 |
| CRYZL1 (crystallin zeta like 1) | 0.92 | 0.9 | 0.98 |
| ZNF75A (zinc finger protein 75A) | 1.18 | 0.78 | 0.66 |
| PRELID3B (PRELI domain containing 3B) | 0.94 | 0.9 | 0.96 |
| HCLS1 (hematopoietic cell-specific Lyn substrate 1) | 1.06 | 0.69 | 0.65 |
